Experimental data taken from US20080241061A1, “METHODS OF IMAGING EMPLOYING CHELATING AGENTS” (priority 2006, published 2008).

Assay: ^99mTc radiolabeling efficiency of lipophilic chelates incorporated into perfluorocarbon nanoparticles or as free lipid-chelate
Text: Several lipophilic chelates were synthesized and evaluated for radiolabeling perfluorocarbon nanoparticles for comparison. Briefly, these lipid-chelates included 6-hydrazinonicotinic-phosphatidylethanolamine (HYNIC-PE), diethylenetriamene pentaacetate-caproyl-phosphatidylethanolamine (DTPA-cap-PE), Gly-Gly-Gly-caproyl-phosphatidyl-ethanolamine (TriGly-cap-PE), Gly-Gly-Gly-Asp-caproyl-phosphatidyl-ethanolamine (triGly-Asp-cap-PE), N2S2-phosphatidylethanolamine (N2S2-PE), and N2S2-NH2-phosphatidylethanolamine (N2S2-NH2-PE). Stannous tartrate reductions of ^99mTc with a tricineintermediate shuttle step were used to minimize the formation of ^99mTcO2 during metalation. ^99mTc was coupled to the bis-pyridyl-lysine through a tricarbonyl precursor as described below. […]
Sodium borohydride NaBH4 (0.53 M), sodium carbonate (0.14 M), and sodium tartrate (0.24 M) in 660 μl deionized water were admixed in a glass serum vial. […] After equilibration to atmospheric pressure, the reaction mixture was adjusted to pH 7 with a 1:3 mixture of 0.1 M phosphate buffer (pH 7.4): 1 M HCl and purity was determined by HPLC as described below. […] The nanoparticle radiolabeling yield was greater than 90% as determined by TLC developed with 0.1M sodium acetate pH 5.18:methanol:water (20:100:200), which achieved approximately 6 atoms of ^99mTc per nanoparticle.

Substance | Yield achieved, Free (^99mTc radiolabeling efficiency)
N2S2-NH2-phosphatidylethanolamine [N2S2-amino-PE] | 67%
N2S2-phosphatidylethanolamine [N2S2-PE] | 93%
